Values of other authors in US8394788B2, “Phenylsulfoxyoxazole compound inhibitors of urea transporters” (The Regents of the University of California, priority 2006, dated 2013).
Some results were stated once for a whole list of compounds, not compound by compound. At least one compound was matched to its structure with a doubt left. Some ranges recur; such a range may be that of the whole group of compounds.

Tested on: UT
Conditions: cited from earlier work

NC(N)=S [thiourea]
concentration exhibiting activity as UT inhibitor: 50 to 100 mM
